Data reported in PMC2908623.
No constants are given. Whether binding was seen depends on the method and setting. Binding seen in cells or lysates may run through a third protein. Some entries that bind do so weakly or less than the wild type.

By UniProt entry, the sequences of proteins in these tests, tags left out. Residues count along the entry.
UniProt P23359, residues 292-430: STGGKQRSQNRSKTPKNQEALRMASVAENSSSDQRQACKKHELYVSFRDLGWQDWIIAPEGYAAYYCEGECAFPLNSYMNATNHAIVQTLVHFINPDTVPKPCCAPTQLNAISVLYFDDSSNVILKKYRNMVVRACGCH

Molecular target: bone morphogenetic protein-7 (mouse (endogenous in mouse mesangial cells)) (UniProt P23359)
Experiment: co-IP; endogenous proteins in lysate of mouse mesangial cells (RIPA buffer: 20 mM Tris-HCl pH 7.4, 100 mM NaCl, 1 mM CaCl2, 1 mM MgCl2, 1% Triton X-100); precipitated with rabbit antibodies against mouse Gremlin or BMP-7 and protein A-Sepharose, overnight at 4°C; blotted for BMP-7 or Gremlin; normal rabbit IgG as negative control; cells cultured under high glucose

binding: binds
B1: Gremlin (protein, UniProt O70326 25-184)
chain: KKKGSQGAIPPPDKAQHNDSEQTQSPPQPGSRTRGRGQGRGTAMPGEEVLESSQEALHVTERKYLKRDWCKTQPLKQTIHEEGCNSRTIINRFCYGQCNSFYIPRHIRKEEGSFQSCSFCKPKKFTTMMVTLNCPELQPPTKKKRVTRVKQCRCISIDLD
